# Test results taken from article PMC7862700.
# Sequences of proteins named here, by UniProt entry; tags and fusion partners are left off. A change or cut given only in a name is not applied to a line headed by its entry.
# UniProt Q00613: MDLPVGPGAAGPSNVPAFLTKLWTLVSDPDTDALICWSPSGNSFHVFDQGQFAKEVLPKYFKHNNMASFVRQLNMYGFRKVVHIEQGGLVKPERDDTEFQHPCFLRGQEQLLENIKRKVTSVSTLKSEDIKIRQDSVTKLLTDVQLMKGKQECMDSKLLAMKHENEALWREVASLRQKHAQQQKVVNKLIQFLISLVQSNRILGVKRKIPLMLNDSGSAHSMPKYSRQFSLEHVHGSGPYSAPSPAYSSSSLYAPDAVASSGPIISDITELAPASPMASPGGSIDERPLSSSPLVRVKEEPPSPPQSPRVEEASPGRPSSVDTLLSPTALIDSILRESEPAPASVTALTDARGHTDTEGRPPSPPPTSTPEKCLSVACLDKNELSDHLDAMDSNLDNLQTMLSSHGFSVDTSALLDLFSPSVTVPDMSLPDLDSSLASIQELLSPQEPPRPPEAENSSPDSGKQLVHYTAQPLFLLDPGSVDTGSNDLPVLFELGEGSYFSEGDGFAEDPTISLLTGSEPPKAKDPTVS
# The list shows a part of the results, in another mix than the full data. For some assays here: At the low end of the ranking, values are background and their order means little. Some of the results follow. For some assays here: Construct or isoform of the protein are uncertain.
# Target: HSF1 (UniProt Q00613)
# Assay: DAPPL (digital affinity profiling via proximity ligation, sequencing)
# Settings: 10 mM Tris-HCl pH 7.5, 50 mM NaCl, 1 mM DTT, 4% glycerol, room temperature, 30 min; GST-TFs on glutathione beads, 16-mer random dsDNA library, 0.1% …; high values mean tight binding; double strand, one strand shown; scale: fold enrichment (6-mer frequency, TF over GST control)
row,Sequence,binding signal
1,GGCACC,0.582
2,ACCGCT,0.945
3,TTCAAT,1.27
4,CACGCA,0.88
5,TATTAC,1.33
6,CATCCT,1.12
7,ACCCGT,0.741
8,ATGGGA,0.858
9,GTTGGT,0.715
10,CCGCAG,0.848
11,AATATT,1.93
12,CATCAT,0.952
13,CATTTG,1.13
14,TTACCA,1.47
15,ACTGGG,0.759
16,GTCCCG,0.997
17,GTGACC,0.896
18,AATTTC,1.89
19,ACGCAC,0.855
20,TTCCAC,1.83

row,Sequence,binding signal
1,CCTGTG,0.849
2,CGGCCT,0.982
3,GGCCCT,0.81
4,TGAACG,0.91
5,CCGAAA,1.73
6,ATAGAC,0.983
7,TTTACC,1.25
8,TCATTA,1.18
9,TATGCC,1.06
10,TTAAGA,1.95
11,TGCCTA,0.963
12,TGTTGG,0.805
13,TCACTC,1.11
14,CTGACC,0.972
15,TCAACG,0.975
16,CTACAA,1.16
17,AATTTG,1.26
18,TATTTA,1.75
19,GATTCA,1.13
20,GGTCTG,0.791

# Target: T1, ELF2 (UniProt Q15723)
# T1 sequence: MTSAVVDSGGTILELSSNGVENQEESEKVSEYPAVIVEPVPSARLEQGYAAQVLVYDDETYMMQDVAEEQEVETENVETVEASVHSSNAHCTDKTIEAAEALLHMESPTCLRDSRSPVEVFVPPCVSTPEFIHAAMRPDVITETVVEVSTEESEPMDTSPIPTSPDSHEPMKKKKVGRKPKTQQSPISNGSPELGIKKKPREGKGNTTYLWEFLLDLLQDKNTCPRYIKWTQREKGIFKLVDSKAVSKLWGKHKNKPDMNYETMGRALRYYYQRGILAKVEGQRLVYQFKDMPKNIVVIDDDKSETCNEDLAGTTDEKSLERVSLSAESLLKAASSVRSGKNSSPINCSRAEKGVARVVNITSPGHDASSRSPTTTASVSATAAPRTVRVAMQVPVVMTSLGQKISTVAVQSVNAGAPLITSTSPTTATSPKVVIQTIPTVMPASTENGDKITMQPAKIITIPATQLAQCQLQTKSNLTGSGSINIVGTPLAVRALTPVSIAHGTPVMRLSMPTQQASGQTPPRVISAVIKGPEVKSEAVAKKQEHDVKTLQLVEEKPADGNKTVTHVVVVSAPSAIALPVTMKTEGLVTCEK
# Assay: as above
# Settings: 10 mM Tris-HCl pH 7.5, 50 mM NaCl, 1 mM DTT, 4% glycerol, room temperature, 30 min; GST-TFs on glutathione beads, 16-mer random dsDNA library, 0.1% …; high values mean tight binding; double strand, one strand shown; scale: fold enrichment (6-mer frequency, TF over GST control)
row,Sequence,binding signal
1,GGCACC,0.752
2,ACCGCT,1.09
3,TTCAAT,1.32
4,CACGCA,0.964
5,TATTAC,1.22
6,CATCCT,1.67
7,ACCCGT,0.819
8,ATGGGA,0.924
9,GTTGGT,0.915
10,CCGCAG,1.08
11,AATATT,1.41
12,CATCAT,1.03
13,CATTTG,1.18
14,TTACCA,1.02
15,ACTGGG,0.781
16,GTCCCG,1.18
17,GTGACC,1.22
18,AATTTC,2.01
19,ACGCAC,1.02
20,TTCCAC,1.39

row,Sequence,binding signal
1,CCTGTG,1.06
2,CGGCCT,1.09
3,GGCCCT,0.952
4,TGAACG,0.873
5,CCGAAA,1.21
6,ATAGAC,0.927
7,TTTACC,1.23
8,TCATTA,1.05
9,TATGCC,1.14
10,TTAAGA,0.99
11,TGCCTA,1
12,TGTTGG,0.918
13,TCACTC,1.15
14,CTGACC,1.33
15,TCAACG,1.02
16,CTACAA,1.12
17,AATTTG,1.24
18,TATTTA,1.47
19,GATTCA,1.12
20,GGTCTG,0.949
